A short description of this assay: qHTS Assay for Lipid Storage Modulators in Drosophila S3 Cells.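 As to cell number change: cells counted by Cell Tracker Red CMTPX staining in the red channel.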 As to conditions: BODIPY lipid droplet fluorescence, 18-24 h; for cell number change: measured here: cell count max response, cells fed with added oleic acid. The method, boiled down:
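Drosophila S3 cells loaded with oleic acid (400 uM, as added) and compounds at several concentrations; lipid droplets imaged by 488-nm laser-scanning cytometry, 500–530 nm intensity and object ratio to cell channel. Percent activity normalized to 20 uM Triacsin C.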
On the technique in general: In qHTS, concentration-response curves come from the screen itself.

Where [1] appears, read: measured here: lipid fluorescence (Fed channel) AC50, cells fed with added oleic acid.
Setting [2] is: measured here: cell number channel AC50, cells fed with added oleic acid.

Some of the results follow. Shown are side measurements of this screen, not its main read-out; they come without a call. Most of these compounds were active or inconclusive in the main read-out, so they are no random draw. Words in brackets tell the shape of the fitted curve; partial curves, single points and poor fits give uncertain potencies.

The AC50 is the midpoint of the concentration-response curve, whichever way the signal moves. Read a high AC50 as activity only at high concentration.

As for `CCn1nc(C(=O)NNC(=O)COc2ccccc2C)c2ccccc2c1=O`, the cell number change was -7.69%. Also, the AC50 under setting [1] is 10.3 µM [rising, partial curve].
As for `Cn1c(/C(C#N)=C(\O)c2ccc(S(=O)(=O)N3CCCCC3)cc2)nc2ccccc21`, the cell number change is 7.58%.
`COC(=O)[C@@]12CCCN1[C@H](c1ccc(-c3ccc(C(C)=O)cc3)c(OC)c1)[C@H]1C(=O)N(C)C(=O)[C@H]12`: the cell number change is -22.8%. The AC50 under setting [1] is 0.164 µM [rising, full curve, poor fit].
Consider `Cn1ccnc1Sc1nnnn1-c1ccccc1`, for which the cell number change is -14.9%. Besides, under setting [2], the AC50 was 2.06 µM [falling, partial curve, poor fit]. In addition, the AC50 under setting [1] is 0.82 µM [falling, full curve, poor fit].
In the case of `O=C(CSc1ccc(Cl)cc1)N1N=CCC1c1ccccc1` (stereo not drawn), under setting [1], the AC50 is 29.1 µM [falling, single point].
Regarding `COc1ccc(C(=O)N/N=C2\SCC(=O)N2Cc2ccc3c(c2)OCO3)c(OC)c1`, the cell number change is -66.4%. The AC50 under setting [2] was 29.1 µM [falling, single point]. Besides, the AC50 under setting [1] was 29.1 µM [falling, single point].
On to `COc1ccc(NS(=O)(=O)c2cccc(NC(=O)COc3ccc(OC)cc3)c2)cc1`, for which the cell number change is -18.7%. In addition, the AC50 under setting [1] is 29.1 µM [falling, single point].
Regarding `CCc1sc(C(=O)NC)cc1Br`, the cell number change was -0.27%. Further, the AC50 under setting [1] was 0.291 µM [falling, partial curve, poor fit].
As for `CC(CCc1ccccc1)NC(=O)CCNS(=O)(=O)c1ccccc1C(F)(F)F` (stereo not drawn), the cell number change was 3.3%. Also, the AC50 under setting [1] is 20.6 µM [rising, partial curve, poor fit].
On to `Cc1cccc(NC(=O)C2C(C(=O)O)C3C=CC2C32CC2)c1C` (stereo not drawn), for which the cell number change amounted to 51.3%. Further, the AC50 under setting [2] was 20.6 µM [rising, single point]. In addition, the AC50 under setting [1] was 18.4 µM [rising, single point].
In the case of `Cc1ccc(C)c(N2CCN(C(=O)C3CCN(c4nnc(N5CCCC5=O)s4)CC3)CC2)c1`, the AC50 is, setting by setting: under setting [2], 0.58 µM [falling, single point]; under setting [1], 1.16 µM [falling, single point].
In the case of `Cc1cccc2cc(CN(Cc3cccs3)C3(c4nnnn4C4CCCC4)CCCC3)c(=O)[nH]c12`, the cell number change turned out to be 17.4%.
On to `C=CCSc1nnc(NC(=O)C23CC4CC(CC(NC(C)=O)(C4)C2)C3)s1`, for which the cell number change stood at 10.8%. The AC50 under setting [1] was 29.1 µM [falling, partial curve, poor fit].
In the case of `CC1CN(C(=O)COC(=O)c2cc(Cl)ccc2[N+](=O)[O-])CC(C)O1` (stereo not drawn), the cell number change came to 4.5%.
Consider `COc1cccc(CNC(=O)CSc2nnc3c(n2)[nH]c2ccccc23)c1`, for which the cell number change came to 36.3%. The AC50 under setting [2] was 29.1 µM [rising, single point].
Consider `COc1ccccc1OCC(=O)N(Cc1nc(-c2ccccc2)no1)C(C)C`, for which the cell number change stood at 3.36%.
As to `CCOC(=O)c1ccccc1NC(=O)COC(=O)c1c(CC)noc1C`, the AC50 is 0.92 µM [rising, single point] under setting [2] and 0.92 µM [rising, full curve, poor fit] under setting [1].
As to `O=C(NCc1ccc(F)cc1)c1cnn2ccccc12`, the cell number change was determined as 4.52%. Also, the concentration at half-maximal activity (AC50) under setting [1] is 0.82 µM [rising, single point].
As for `O=C(NCc1cccnc1)/C(=C\c1ccc(-c2ccc(Br)cc2)o1)S(=O)(=O)c1ccccc1`, the cell number change is -71.5%. Besides, the AC50 under setting [2] was 13 µM [falling, partial curve]. The AC50 under setting [1] was 8.2 µM [falling, partial curve].
As for `CCOc1ccc(-c2nc(-c3cccs3)c(CC(=O)O)s2)cc1OC`, the cell number change is 35%. In addition, the AC50 under setting [2] was 18.4 µM [rising, single point].
For `COc1ccc(/C=C/C(=O)OCC(=O)c2ccc[nH]2)cc1`, the cell number change was -4.63%. The AC50 under setting [1] is 6.51 µM [rising, partial curve, poor fit].
On to `COc1cccc(N2C(=O)C3CC=C(Cl)CC3C2=O)c1` (stereo not drawn), for which the cell number change was 16.8%.
Take `CCOC(=O)c1sc(NC(=O)CSc2nccc(C)n2)c(C#N)c1C`: the cell number change was 56.3%. For the same compound, under setting [2], the AC50 was 29.1 µM [rising, single point]. Under setting [1], the AC50 was 1.46 µM [rising, full curve].
For `Nc1nc(SCc2cccc([N+](=O)[O-])c2)n[nH]1`, the cell number change is -2.24%. In addition, the AC50 under setting [1] was 6.51 µM [rising, partial curve, poor fit].
As for `COc1ccccc1N(CC(=O)Nc1ccccc1C(=O)NC(C)C)S(C)(=O)=O`, the cell number change is -1.21%. For the same compound, the AC50 under setting [1] is 0.00461 µM [rising, full curve, poor fit].
As to `CC(=O)c1ccc(OCC(=O)NCC2(N3CCCCC3)CCCCC2)cc1`, the cell number change was -37.5%. Also, the concentration at half-maximal activity (AC50) under setting [2] is 20.6 µM [falling, single point].
In the case of `CS(=O)(=O)Nc1ccc(C(=O)NCCC2=CCCCC2)cc1`, the cell number change came to 71.3%. For the same compound, under setting [2], the AC50 is 29.1 µM [rising, single point]. Besides, the AC50 under setting [1] was 29.1 µM [rising, single point].
On to `O=[N+]([O-])c1ccccc1S(=O)(=O)N1CCN(CC2CC=CCC2)CC1` (stereo not drawn), for which the cell number change is 12.1%.
For `Cc1cc(C)c(S(=O)(=O)NCc2cn3c(C)csc3n2)cc1C`, the cell number change is -18.9%. Under setting [1], the AC50 is 3.26 µM [rising, single point].
`NS(=O)(=O)c1ccc(CCNC(=O)C(=O)c2c[nH]c3ccccc23)cc1`: the cell number change stood at 13.6%. Moreover, the AC50 under setting [1] is 1.64 µM [rising, partial curve].
Take `CCC1(C)Cc2ccccc2-c2nc(NCCO)n(-c3ccc(C)cc3)c(=O)c21` (stereo not drawn): the cell number change turned out to be 30.1%. Besides, the AC50 under setting [2] is 10.3 µM [rising, single point].
As to `O=C(CCc1nc2ccccc2c(=O)[nH]1)Nc1nnc(SCc2ccccc2F)s1`, the cell number change is 11.2%. Besides, the AC50 under setting [1] is 0.00517 µM [rising, full curve, poor fit].
Turning to `CN1C(=O)C(CC(=O)Nc2ccc(F)cc2)N(Cc2ccco2)C1=S` (stereo not drawn), the cell number change is -13.7%. Besides, under setting [1], the AC50 is 25.9 µM [falling, single point].
As to `COc1ccc(C(CNC(=O)C(CCSC)NC(=O)c2ccccc2Cl)N2CCOCC2)cc1` (stereo not drawn), the AC50 by setting is: under setting [2], 6.51 µM [falling, single point]; under setting [1], 6.51 µM [falling, single point].
`CCN1CCC(C(=O)NC2CCCC2)(N(Cc2cccs2)C(=O)Cn2nnc3ccccc32)CC1`: the cell number change is -12.1%.
`Cc1ccc(S(=O)(=O)N(C)C)cc1NC(=O)COC(=O)/C=C/c1ccc2ccccc2n1`: the cell number change was 22.2%. The AC50 under setting [1] is 23.1 µM [falling, single point].
`CSc1nc2ncc(-c3ccsc3)c(N)n2n1`: the cell number change is -45.3%. Further, under setting [2], the AC50 is 1.64 µM [falling, full curve]. Moreover, the AC50 under setting [1] is 1.3 µM [falling, full curve].

The values are drawn from PubChem BioAssay AID2685 (National Center for Advancing Translational Sciences (NCATS), 2010).
